Paper PMC5839545
These are yes or no findings as the source states them, for the method shown. Each block holds one substance with its values, some of them ahead of it.

Protein sequences, listed by entry. Tags and fused reporters are not part of them. Lines headed by an entry give the natural chain unless they say otherwise; changes in a name come on top. Residues count along the entry.
EGFP-(s)-CENP-T^∆C (Q96BT3, residues 1-395): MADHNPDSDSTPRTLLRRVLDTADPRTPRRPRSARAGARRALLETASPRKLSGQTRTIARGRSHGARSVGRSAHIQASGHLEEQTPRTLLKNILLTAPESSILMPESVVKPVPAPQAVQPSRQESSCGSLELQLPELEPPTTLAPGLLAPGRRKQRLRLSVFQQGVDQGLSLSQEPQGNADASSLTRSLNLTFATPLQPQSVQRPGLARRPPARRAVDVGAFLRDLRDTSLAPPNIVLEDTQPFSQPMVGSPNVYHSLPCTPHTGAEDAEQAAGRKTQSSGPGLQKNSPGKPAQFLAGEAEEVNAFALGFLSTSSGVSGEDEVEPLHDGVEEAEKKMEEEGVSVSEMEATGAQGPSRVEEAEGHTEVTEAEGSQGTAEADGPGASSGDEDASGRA
mCherry-(s)-CENPT^∆N (Q96BT3, residues 396-561): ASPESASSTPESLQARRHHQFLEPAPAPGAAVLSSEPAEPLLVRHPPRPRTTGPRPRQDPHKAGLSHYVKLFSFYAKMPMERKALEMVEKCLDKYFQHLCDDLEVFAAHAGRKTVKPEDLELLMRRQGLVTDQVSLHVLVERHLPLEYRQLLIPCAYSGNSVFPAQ
UniProt Q5EE01: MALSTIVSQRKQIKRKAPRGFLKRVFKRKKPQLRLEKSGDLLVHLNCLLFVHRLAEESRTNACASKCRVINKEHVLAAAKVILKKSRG
UniProt A8MT69: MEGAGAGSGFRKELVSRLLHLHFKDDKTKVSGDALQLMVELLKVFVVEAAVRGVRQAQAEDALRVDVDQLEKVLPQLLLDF
UniProt Q9NSP4: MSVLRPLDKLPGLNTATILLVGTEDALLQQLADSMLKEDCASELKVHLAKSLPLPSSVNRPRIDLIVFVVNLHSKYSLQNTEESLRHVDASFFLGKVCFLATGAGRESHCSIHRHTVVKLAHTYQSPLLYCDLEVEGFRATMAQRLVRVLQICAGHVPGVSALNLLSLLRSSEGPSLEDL
UniProt Q8N2Z9: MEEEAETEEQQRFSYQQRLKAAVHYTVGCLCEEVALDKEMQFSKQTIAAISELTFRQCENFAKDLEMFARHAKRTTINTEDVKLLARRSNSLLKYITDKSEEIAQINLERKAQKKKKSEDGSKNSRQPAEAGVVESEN
UniProt Q8NBT2: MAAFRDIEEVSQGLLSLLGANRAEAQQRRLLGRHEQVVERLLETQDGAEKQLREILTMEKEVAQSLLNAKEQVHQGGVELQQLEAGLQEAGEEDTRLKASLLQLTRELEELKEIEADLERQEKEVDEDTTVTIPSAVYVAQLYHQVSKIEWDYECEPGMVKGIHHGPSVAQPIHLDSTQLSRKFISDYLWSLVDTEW

Tests used:
[1] = target: CENP-T^∆C-(s)-mCherry (human) (UniProt Q96BT3); assay: dual color fluorescence cross-correlation spectroscopy (DC-FCCS); EGFP and mCherry fusion proteins co-expressed in living interphase HEp-2 or U2OS cells; spots in the nucleoplasm free of kinetochores, focal volume bleached before; 37°C; 488 and 561 nm; corrected values are the measured ones times about two
[2] = target: mCherry-(s)-CENP-W (human) (UniProt Q5EE01); assay: single-wavelength fluorescence cross-correlation spectroscopy (SW-FCCS); EGFP and mCherry fusion proteins co-expressed in living interphase HEK293 cells; nucleoplasm; 37°C; 514 nm; effective (apparent) Kd from scatter plot (S) or histogram (H), corrected for non-fluorescent mCherry and observation volumes
[3] = target: mCherry-(s)-CENP-X (human) (UniProt A8MT69); assay: as above
[4] = target: mCherry-(s)-CENPT^∆N (human) (UniProt Q96BT3); assay: as above

binding [1]: no binding
Substance: EGFP-(s)-CENP-M (from UniProt Q9NSP4 1-180)

binding [2]: no binding
Substance: EGFP-(s)-CENP-S (from UniProt Q8N2Z9 1-138)

binding [2]: no binding
Substance: EGFP-(s)-CENP-T^∆C (from UniProt Q96BT3 1-395) (domain or fragment)

binding [3]: no binding
Substance: EGFP-(s)-CENP-W (from UniProt Q5EE01 1-88)

binding [4]: no binding
Substance: EGFP-(s)-Spc24 (from UniProt Q8NBT2 1-197)
